Experimental data from PubChem BioAssay AID651789 (National Center for Advancing Translational Sciences (NCATS), 2012).
This list was built around the results that the source calls inconclusive (neither active nor inactive); the mix of calls is not that of the screen. Potencies of inconclusive entries are doubtful fits and often do not repeat. The source made the active and inactive calls. Calls come from the whole dose curve; as a rule, active = well fitted inhibition curve with a large enough effect; inconclusive = small, poorly fitted or top-dose-only effect; inactive = no such curve, though single readings can be large or run the other way.

Test: Acumen qHTS Assay for Inhibitors of the mTORC1 Signaling Pathway in WT MEF Cells: Hit Validation; note: nearly all actives have a fitted effect of over 60% in size
Conditions: Acumen imaging; series mostly up to 37.3 µM
Description: The mammalian target of rapamycin (mTOR) is an intracellular serine/threonine kinase Aberrant regulation of mTOR signaling plays a causative role in a number of human diseases, including cancer, benign tumors such as lymphangioleiomyomatosis (LAM) and Tuberous Sclerosis Complex (TSC), and metabolic diseases such as diabetes and obesity. This project aims to identify inhibitors of ribosomal protein S6 (rpS6) phosphorylation. The phosphorylation of rpS6 is a key event downstream of mTOR activation. The assay uses a phospho-specific antibody of phospho-rpS6 to detect inhibitors of mTOR activation. Mutations in the Tsc1 and Tsc2 genes are the underlying genetic lesions responsible for TSC, causing constitutive activation of the mTORC1 pathway and leading to profound effects on cell metabolism. Aberrant metabolism in cancer has recently received significant attention as a target to develop therapeutic agents in the treatment of cancer.1 As Tsc2-/- cells have lost the ability to respond to energy and growth factor deprivation, these cells are unable to properly down regulate cellular biosynthetic processes in response to metabolic stress, and are thus extremely sensitive to glucose deprivation-induced death.2 A central goal of this project is to explore the unique cell survival and metabolic properties of cells with Tsc1 or Tsc2 by screening for compounds that selectively target the Tsc2-/- MEFs by screening both Tsc2-/- and WT MEF cell lines. We hope to better understand these aspects of TSC physiology in order to exploit them for therapeutic benefit.
NIH Molecular Libraries Probe Production Centers Network [MLPCN]
NIH Chemical Genomics Center [NCGC]
Assay Submitter (PI): Blenis, John; Harvard University
For quantitative high throughput analysis of mTORC1 signaling, we developed a cell-based assay for immuno-fluorescence based detection of rpS6 phosphorylation on the Acumen Explorer that will be used a platform for the primary small molecule screen. Mouse embryonic fibroblasts (MEFs) are cultured in 1536-well plates using DMEM + 10% FBS. Twenty-four hrs after plating, test compounds (solubilized in DMSO) are delivered and incubated with the cells for 24 hrs at 37 degree Celsius. Following the incubation, media with compound is aspirated and the cells are fixed in 4% paraformaldehyde (PFA) containing PBS + 0.2% TX-100. Next, PFA is aspirated, cells are washed two times with PBS plus 0.2% TX-100 and the cells are blocked for 1 hr at room temperature (blocking buffer: LiCOR Blocking Buffer plus 0.2% TX-100). This is followed by aspiration and staining with Alexa-488 conjugated-phospho-rpS6 Ser235/236 antibody for 2 hours at room temperature (Cell Signaling Technology # 4803, 1:50 dilution in blocking buffer). Cells are washed two times with PBS plus 0.2% TX-100, and stained with 10 uM propidium iodide (PI) for 20-25 minutes for cell number measurement (1:500 dilution of Hoescht staining is also added for IN Cell imaging). The plates are scanned on the Acumen Explorer laser scanning instrument (TTP Labtech) using the 488nm laser for simultaneous excitation of the Alexa-488 and PI. […] Fluorescence emission from the PI stain is selected using a 575-640 nm band pass filter. The normalized phospho-S6 staining is calculated as the ratio of the integrated Alexa 488 intensity divided by the integrated PI intensity for the single concentration rapamycin control (7.5 nM) and DMSO columns. […] Inhibition of the pathway is defined based on the normalized phospho-S6 intensity in rapamycin treated cells. Active cells are defined as those with a normalized phospho-S6 staining above this threshold, and each treatment is reported as the % positive cells in the well, where thresholds are defined by selecting wells with the highest and lowest signal and differentiating between the % non-active and % active populations. In addition to the pathway specific phospho-S6 endpoint, the number of PI stained cells from the Acumen is recorded as a measure of cell viability. […]
Potency is the fitted concentration of half-maximal effect.

| Structure (SMILES) | Potency |
| --- | --- |
| COc1ccc(CN2CCN(c3ncnc4sc5c(c34)CCCC5)CC2)cc1F | inconclusive: 26100 nM [inhibitor, single point] |
| Cc1c(C(=O)OC2CCCCC2)[nH]c2c1C(=O)CC(c1ccccc1)C2 (centres undefined) | inconclusive: 1850 nM [inhibitor, partial curve, poor fit] |
| CCN(CC)CCSc1nc2ccccc2c(=O)n1-c1ccc(Cl)cc1 | inactive |
| COc1ccc(N2CCN(C(=O)C3CCCN(S(=O)(=O)c4ccc5c(c4)CCCN5C(C)=O)C3)CC2)cc1 (centres undefined) | inconclusive: 117 nM [inhibitor, full curve, poor fit] |
| CCCCOc1ccc(CN2C(=O)C(=O)c3cc(C)ccc32)cc1OC | inconclusive: 414 nM [inhibitor, full curve] |
| COc1ccc(CNC(=O)Cn2c(SCC(=O)Nc3ccc(C)c(C)c3)nc3ccccc32)cc1 | inconclusive: 26100 nM [inhibitor, single point] |
| Cc1ccc2oc(-c3ccc(Cl)cc3)c(O)c(=O)c2c1 | inconclusive: 23300 nM [inhibitor, single point] |
| CCCOC(=O)c1c(C)oc2c1cc(NS(=O)(=O)c1ccc(OCC)cc1)c1ccccc12 | active: 656 nM |
| Cc1ccc(-n2c(/C=C/c3ccc(Br)s3)nc3ccccc3c2=O)cc1C | inactive |
| CCN(CC)C(=O)c1ccc(NC(=O)CCn2nc(-c3ccc(C)cc3)c3ccccc3c2=O)cc1 | inactive |
| CCOc1ccc(NC(=O)CSc2oc(-c3ccccc3)nc2S(=O)(=O)c2ccc(Cl)cc2)cc1 | active: 3690 nM |
| CCOc1ccc(N(C(C)C(=O)Nc2cc(Cl)ccc2OC)S(C)(=O)=O)cc1 (centres undefined) | active: 3690 nM |
| CN[C@@H]1C[C@@]2(C)O[C@@H]([C@@H]1OC)n1c3ccccc3c3c4c(c5c6ccccc6n2c5c31)C(=O)NC4 | active: 32.5 nM |
| Cc1ccccc1-n1c(/C=C/c2c(C)[nH]c3ccccc23)nc2ccccc2c1=O | active: 1850 nM |
| CCOc1ccc(/C=C/c2nc(C#N)c(NCc3ccccc3)o2)cc1 | inconclusive: 369 nM [inhibitor, full curve] |
| COc1cccc(C2=CC(c3cc(Br)ccc3F)n3nnnc3N2)c1 (centres undefined) | inconclusive: 4140 nM [inhibitor, full curve] |
| COc1ccc2nc(NC(=O)c3nc(S(=O)(=O)Cc4cccc(C)c4)ncc3Cl)sc2c1 | inconclusive: 2330 nM [inhibitor, full curve] |
| Cc1ccc(NC(=O)CSc2nc(-c3ccco3)cc(C(F)(F)F)n2)c(C)c1 | inconclusive: 1850 nM [inhibitor, full curve] |
| Cc1ccc2c(c1)cc(C(=O)Nc1ccccc1C)n2C | inconclusive: 1850 nM [inhibitor, full curve, poor fit] |
| O=C(Nc1ccon1)c1cccn(Cc2cccc(Cl)c2)c1=O | inactive |
| Cc1oc(-c2ccc(Cl)cc2)nc1CN1CCC(C(=O)NCCCN2CCN(c3cccc(Cl)c3)CC2)CC1 | inconclusive: 2930 nM [inhibitor, full curve, poor fit] |
| COc1ccc(C(=O)Nc2ccc3c(c2)N(C)C(=O)c2ccccc2S3)cc1OC | inconclusive: 18500 nM [inhibitor, single point] |
| Cc1cccc(CN2CCc3nc(N4CCN(c5ccccn5)CC4)ncc3C2)c1 | inactive |
| CCOc1ccc(CN(CCc2ccc3c(c2)OCO3)Cc2ccc(C)cc2)cc1 | inactive |
| Cc1c(Cl)cccc1NC(=O)c1oc2ccc(S(=O)(=O)N3CCC4(CC3)OCCO4)cc2c1C | inconclusive: 2930 nM [inhibitor, partial curve, poor fit] |
| COc1ccccc1N=c1scc(-c2ccc(S(=O)(=O)N3CCCC3)cc2)n1C | inconclusive: 5850 nM [inhibitor, partial curve] |
| Cc1ccc(NC(=O)COc2ccc(-c3nn(C)c(=O)c4ccccc34)cc2)c(C)c1 | inconclusive: 23.3 nM [inhibitor, full curve, poor fit] |
| O=C(Nc1ccc(Cl)c(C(F)(F)F)c1)c1ccc2c(c1)CCN2S(=O)(=O)c1ccccc1 | inconclusive: 11700 nM [inhibitor, partial curve] |
| O=C(c1ccccc1)c1ccc2nc(N3CCN(c4ccc(F)cc4)CC3)c3nncn3c2c1 | inconclusive: 13100 nM [inhibitor, partial curve] |

3 compounds out of the list, sorted by number of heavy atoms, low to high:

| Structure (SMILES) | Potency |
| --- | --- |
| O=C(Nc1ccc(Cl)c(C(F)(F)F)c1)c1ccc2c(c1)CCN2S(=O)(=O)c1ccccc1 | inconclusive: 11700 nM [inhibitor, partial curve] |
| Cc1c(Cl)cccc1NC(=O)c1oc2ccc(S(=O)(=O)N3CCC4(CC3)OCCO4)cc2c1C | inconclusive: 2930 nM [inhibitor, partial curve, poor fit] |
| COc1ccc(CNC(=O)Cn2c(SCC(=O)Nc3ccc(C)c(C)c3)nc3ccccc32)cc1 | inconclusive: 26100 nM [inhibitor, single point] |
